Measurements taken from PubChem BioAssay AID2517 (National Center for Advancing Translational Sciences (NCATS), 2010).
Out of some 350,000 compounds screened, about 1,200 (0.34%) were called active. This list was built around the results that the source calls inconclusive (neither active nor inactive); the mix of calls is not that of the screen. Calls follow the shape of the dose curve; as a rule, active = well fitted inhibition curve with a large enough effect; inconclusive = small, poorly fitted or top-dose-only effect; inactive = no such curve, though single readings can be large or run the other way. A potency beside an inconclusive call is a rough fit, not a confirmed value.

Chains of the proteins cited; added tags and fusions are not shown.
UniProt P27695, whole entry, looked up: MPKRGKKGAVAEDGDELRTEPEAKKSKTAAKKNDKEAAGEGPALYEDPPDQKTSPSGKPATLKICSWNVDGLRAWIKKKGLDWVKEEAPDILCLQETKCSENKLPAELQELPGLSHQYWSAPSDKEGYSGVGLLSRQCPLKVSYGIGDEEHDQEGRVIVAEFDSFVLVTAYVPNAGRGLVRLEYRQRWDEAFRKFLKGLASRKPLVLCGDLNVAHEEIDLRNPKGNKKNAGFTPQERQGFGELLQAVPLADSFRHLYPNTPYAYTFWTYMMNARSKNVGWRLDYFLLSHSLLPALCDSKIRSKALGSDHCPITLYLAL

What follows are compounds tested against DNA repair nuclease/redox regulator APEX1 (Homo sapiens) (UniProt P27695) (assay: qHTS Assay for Inhibitors of the Human Apurinic/apyrimidinic Endonuclease 1 (APE1)). Settings: recombinant APE1, TAMRA/BHQ-2 abasic DNA cleavage fluorescence; activity change, negative = inhibition: at 65.8 µM (top of the series).
Outline: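 0.75 nM APE1 + cpd, 15 min RT; start w/ 50 nM TAMRA/BHQ-2 THF-abasic dsDNA; kinetic fluor 525/598 nm ×3 reads @60 s; Δ(read3−read1); normalized to DMSO and NSC13755 control wells.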
Also: nearly all actives have a fitted effect of over 55% in size.
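For activity change, negative = inhibition in this document: plate controls were vehicle for no effect and reference inhibitor for full effect.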
Potency is read from the fitted curve at half-maximal effect.

Row | SMILES | Potency | activity change, negative = inhibition
1 | COc1ccc2[nH]c(C(=O)N/N=C/c3ccc(O)cc3O)cc2c1 | inconclusive: 23.8 µM [inhibitor, single point] | –
2 | O=C(C1CC(=O)N(c2ccc(Cl)cc2)C1)N1CCN(Cc2ccc3c(c2)OCO3)CC1 (centres undefined) | inactive | –
3 | CC(C)Cn1[nH]c2c3c(ccc2c1=O)C(=O)c1ccccc1C3=O | inconclusive: 3.16 µM [inhibitor, full curve, poor fit] | –
4 | O=C(CCNS(=O)(=O)c1ccccc1)Nc1ccccc1 | inconclusive: 5.32 µM [inhibitor, single point] | –
5 | CCn1c(C)c(C(C)=O)c(N2CCN(c3ccccc3)CC2)nc1=S | inconclusive: 22.4 µM [inhibitor, partial curve, poor fit] | –
6 | COc1cc(-c2noc(C)n2)cc(OC)c1OC | inconclusive: 3.98 µM [inhibitor, single point] | –
7 | N=C(N)S/C=C\C(=O)O | inconclusive: 39.8 µM [inhibitor, single point] | –
8 | COc1ccc(OC)c(S(=O)(=O)Nc2ccc(O)c(Sc3ncn[nH]3)c2)c1 | inactive | –
9 | c1csc(-c2noc(COc3ccc4c(c3)CCCC4)n2)c1 | inconclusive: 3.98 µM [inhibitor, full curve] | –
10 | CC(C)(Cc1ccc(O)cc1)NC(=O)CC(=O)N=Nc1c(O)[nH]c2ccc(Br)cc12 | inconclusive: 0.631 µM [inhibitor, single point] | –
11 | COc1ccccc1-c1cncnc1N(C)Cc1ccco1 | inactive | –
12 | Cc1c(C(=O)Nc2cnccn2)oc2ccccc12 | inconclusive: 28.2 µM [inhibitor, partial curve, poor fit] | –
13 | CC(=O)N(C)/C=C1\Sc2ccccc2C1=O | inactive | –
14 | COc1ccc(/C=N/Nc2ccccc2C(=O)O)cc1Cn1cc([N+](=O)[O-])cn1 | inactive | –
15 | CCOc1ccccc1-c1c2cc(O)c(=O)cc-2oc2cc(O)c(O)cc12 | inactive | –
16 | O=c1ccc(Cl)n[nH]1 | inconclusive: 0.178 µM [inhibitor, full curve, poor fit] | –
17 | C=CC[C@@](C(C)=O)(C(=O)OC)C(NC(=O)OC)c1ccccc1 (some centres undefined) | inconclusive: 6.31 µM [inhibitor, single point] | –
18 | COc1ccc(-c2nn(-c3ccccc3)cc2CO)cc1 | inconclusive: 0.0079 µM [inhibitor, full curve, poor fit] | –
19 | Cc1ccc(NC(=O)CC2SC(=O)NC2=O)cc1 (centres undefined) | inconclusive: 20 µM [inhibitor, single point] | –
20 | C#CCOCCOCCOCCNc1nc(N2CCN(C(=O)CCCCCCCCCCNC(=O)[C@@H](CCSC)n3cc(CCO)nn3)CC2)nc(N2CCN(C(=O)CCCCCCCCCCNC(=O)[C@H]([C@@H](C)CC)n3cc(CCCCCN)nn3)CC2)n1 | inconclusive: 33.6 µM [inhibitor, single point] | –
21 | COc1ccc(Cl)cc1NC(=O)C(C)NC(c1ccccc1)c1ccccc1 (centres undefined) | inconclusive: 50.1 µM [inhibitor, partial curve, poor fit] | –
22 | CCN(CC)S(=O)(=O)c1ccc(Cl)c(C(=O)OC)c1 | inconclusive: 12.6 µM [inhibitor, single point] | –
23 | Cc1ccccc1S(=O)(=O)/N=C(/c1ccccc1)N1CCOCC1 | inactive | –

Row | SMILES | Potency | activity change, negative = inhibition
24 | O=C(/C=C/c1ccco1)Nc1ccc(Cl)c(S(=O)(=O)N2CCOCC2)c1 | inactive | –
25 | CO[C@H]1COC(=O)C/C=C\[C@H](C)[C@@H](NS(=O)(=O)c2ccc(C)cc2)COC(=O)CCC[C@@H]1C | inconclusive: 7.94 µM [inhibitor, single point] | –
26 | S=c1[nH]nc(-c2cc(-c3ccccc3)n[nH]2)n1/N=C/c1c2ccccc2cc2ccccc12 | inconclusive: 31.6 µM [inhibitor, single point] | –
27 | Fc1cccc(COc2ccccc2C(=S)N2CCCC2)c1 | inconclusive: 39.8 µM [inhibitor, partial curve] | –
28 | C=CCN=C(C)C1=C(O)C(C)OC1=O (centres undefined) | inactive | –
29 | COC(=O)C1=C(C)N(c2cc(C)cc(C)c2)/C(=C/c2ccco2)C1=O | inconclusive: 25.1 µM [inhibitor, partial curve] | –
30 | O=C(N1CCN=C1SCc1cccnc1)C12CC3CC(CC(C3)C1)C2 | inconclusive: 5.01 µM [inhibitor, full curve] | –
31 | CC(C)(C)c1ccc(-c2conc2N)cc1 | inconclusive: 10 µM [inhibitor, partial curve] | –
32 | S=C(NNc1ccc2ccccc2c1)NC1CCCCC1 | inactive | –
33 | O=C(CN(C(=O)C1CSC(=O)C1)c1ccccc1F)NCc1ccc2c(c1)OCO2 (centres undefined) | inconclusive: 39.8 µM [inhibitor, single point] | –
34 | CC(/C=N/NC(=O)Cc1cccn1C)=C\c1ccco1 | inconclusive: 39.8 µM [inhibitor, single point] | –
35 | Cc1ccc(OCCOCCOc2ccc(Br)cc2/C=N\NC(=O)c2ccncc2)cc1 | inconclusive: 50.1 µM [inhibitor, partial curve, poor fit] | –
36 | CCOC(=O)C1=C(c2ccccc2)NC(SCC(=O)Nc2ccccc2C)=C(C#N)C1c1ccco1 (centres undefined) | inconclusive: 10 µM [inhibitor, partial curve, poor fit] | –
37 | CCOC(=O)c1ccc2c(c1)N(C)C(=O)c1ccccc1S2 | inactive | –
38 | C=CCOc1c(Br)cc(/C=N/Nc2ccc(C(=O)O)cc2)cc1OCC | inconclusive: 39.8 µM [inhibitor, single point] | –
39 | COc1ccc(C2CC(c3cccs3)=NN2c2ccc(F)cc2)cc1OC (centres undefined) | inconclusive: 22.4 µM [inhibitor, single point] | –
40 | CC(C)N1CN(c2ccccc2)C(=S)N(c2ccccc2)C1 | inconclusive: 3.55 µM [inhibitor, single point] | –
41 | O=C(CN1CCN(c2ccc(O)cc2)CC1)Nc1ccc2c(c1)OCCO2 | inconclusive: 25.1 µM [inhibitor, single point] | –
42 | Cc1ccc(-c2noc(CN3CCN(c4ccccc4F)CC3)n2)cc1 | inconclusive: 44.7 µM [inhibitor, single point] | –
43 | Nc1nonc1-n1nnc(C(=O)N/N=C/c2ccccc2Cl)c1CSc1ccccc1 | inactive | –
44 | Cc1nc2cc(-c3ccsc3-n3c(C)ccc3C)[nH]n2c(=O)c1Cl | inconclusive: 3.98 µM [inhibitor, full curve] | –
45 | Cc1ccc(/C=C/C(=O)NC2CCS(=O)(=O)C2)cc1 (centres undefined) | inconclusive: 5.01 µM [inhibitor, full curve] | –
46 | CSc1nc(N2CCOCC2)c2c3c(sc2n1)CCC3 | inconclusive: 2.82 µM [inhibitor, single point] | –

Row | SMILES | Potency | activity change, negative = inhibition
47 | O=C(NNc1cc(Br)c(O)c(Br)c1)c1ccccc1 | inconclusive: 35.5 µM [inhibitor, partial curve] | –
48 | Cc1ccccc1Nc1oc(-c2ccccc2)nc1-c1ccccc1F | inconclusive: 7.94 µM [inhibitor, single point] | –
49 | CNC(=S)N/N=C/c1ccc(-c2ccc(Cl)c([N+](=O)[O-])c2)o1 | inconclusive: 39.8 µM [inhibitor, single point] | –
50 | CC(=O)OCC(OC(C)=O)C(OC(C)=O)C(OC(C)=O)C(OC(C)=O)C(COC(C)=O)OC(C)=O (centres undefined) | inconclusive: 39.8 µM [inhibitor, single point] | –
51 | O=C(Nc1nnc(-c2ccccc2)o1)Nc1ccccc1Cl | inconclusive: 44.7 µM [inhibitor, single point] | –
52 | FC(F)(F)c1ccccc1-c1nccc(NCc2cccs2)n1 | inconclusive: 39.8 µM [inhibitor, single point] | –
53 | Cc1ccc2nc(/C(C#N)=C\c3ccc(N4CCCCC4)c([N+](=O)[O-])c3)[nH]c2c1 | inactive | –
54 | COc1ccc(CNC(=O)CCC(=O)N2CCN(S(=O)(=O)c3cc([N+](=O)[O-])ccc3C)CC2)cc1 | inconclusive: 8.44 µM [inhibitor, single point] | –
55 | CCN(CC)C(=O)C1CCCN(C(=O)Nc2ccc3nsnc3c2)C1 (centres undefined) | inactive | –
56 | Cc1ccc(N2C(=O)c3ccccc3C2C(=O)c2ccc(O)cc2O)cc1 (centres undefined) | active: 6.31 µM | –
57 | COc1ccc(OC)c([C@@H]2OCCC=C[C@H]2C)c1 | inconclusive: 4.47 µM [inhibitor, single point] | –
58 | O=c1cc(-c2ccc(O)c(-c3c(O)cc(O)c4c(=O)cc(-c5ccc(O)cc5)oc34)c2)oc2cc(O)cc(O)c12 | inactive | –
59 | CCN(CC)c1ncc(C#N)c(N)n1 | inconclusive: 0.0355 µM [inhibitor, full curve] | –
60 | CCN(CC)c1ccc(/C=N/NC(=O)c2ccoc2C)c(O)c1 | inconclusive: 20 µM [inhibitor, single point] | –
61 | COC(=O)c1oc2ccccc2c1N | inactive | –
62 | O=C(CC1Sc2ccccc2NC1=O)Nc1cccc(C(=O)O)c1 (centres undefined) | inconclusive: 15.8 µM [inhibitor, partial curve] | –
63 | Nc1nc(Nc2cccc(Cl)c2)n[nH]1 | inconclusive: 1.58 µM [inhibitor, partial curve] | –
64 | CCN(CC)S(=O)(=O)c1ccc2oc(C(=O)NC3CC3)c(C)c2c1 | – | inactive: -14% [at 12.4 µM]
65 | CN(C)c1ccc(C(=O)/C=C/c2ccco2)cc1 | inconclusive: 25.1 µM [inhibitor, partial curve] | –
66 | OCCNc1c2ccccc2nc2ccccc12 | inconclusive: 44.7 µM [inhibitor, single point] | –
67 | O=C(Cn1cc(C(F)(F)F)ccc1=O)N/N=C/c1ccc(Cl)c(Cl)c1 | inconclusive: 4.47 µM [inhibitor, full curve] | –
68 | CCCCCCCCCCCNC(=O)c1ccoc1C | inactive | –
69 | OC1OC[C@H](O)[C@@H](O)[C@@H]1O (some centres undefined) | inconclusive: 0.631 µM [inhibitor, full curve] | –

In another format: three of the compounds above.
Row,SMILES,Potency,"activity change, negative = inhibition"
61,COC(=O)c1oc2ccccc2c1N,inactive,–
62,O=C(CC1Sc2ccccc2NC1=O)Nc1cccc(C(=O)O)c1 (centres undefined),"inconclusive: 15.8 µM [inhibitor, partial curve]",–
63,Nc1nc(Nc2cccc(Cl)c2)n[nH]1,"inconclusive: 1.58 µM [inhibitor, partial curve]",–
